Test results: the supplement of paper PMC11237882
The list shows a part of the results. Values are worked out from sequencing counts and are noisy.

Target: T1, Homer1 EVH1 domain
T1 chain: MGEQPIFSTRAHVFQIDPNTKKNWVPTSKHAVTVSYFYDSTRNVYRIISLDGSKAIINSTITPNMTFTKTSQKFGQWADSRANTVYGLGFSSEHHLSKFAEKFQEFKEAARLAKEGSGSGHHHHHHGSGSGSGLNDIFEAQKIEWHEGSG
Assay: enrichment score (AUC of log2 frequency ratio across FACS sorting rounds) (log2 AUC); higher = stronger enrichment for Homer1 EVH1 binding

Binder | enrichment score
YRMYWFTNFLYDMLFYLVSVCLCVAVIVAFQLTAFT | 2.94
YRPPRYQIAIRACFLGFVFGCGTLLSFSQSSRSHFG | 1.85
NSIAATEAEARIFWLGLIICPMIWIVFFFSTLFSLK | 3.59
YVLLSSSVSFYLPLLVMLFVYARVFVVATRQLRLLG | 3.14
RVRLPGIPHAARNPTHSYSVRLPRKGCSAVAALVRQ | 2.14
IAVAMGIRFIIMVAIWSAVFLNSLFNQEVQIPLTES | 0.43
AENSGTTVVYNPYAALSIEQQRQKLPVFKLRNHILY | -0.593
QLKKIFQEYGTVGVSLHIGISLISLGIFYMVVSSGV | 0.986
LSFAGTTALLLQGLFIVLILVGYISVKVMLKSIKTR | 0.74
NARKQLLISAVPAVLILHLKRFHQAGLSLRKVNRHV | 3.47
TANSLILVIFILGLFVLGIASILYYYFSMEAASLSL | 2.17
KRQEYRSMKGLRWEDTRDTAAIFLIFSIFIIIGFFI | -0.279
MTPKQSKVVKAILWLCGIQEKGKEELPARAEAIIVS | -0.141
PSQRYPLWYKNMVSLWILFGMAWLALIIKLILSLQE | 0.637
VVILIFYLITLIGNLFIIILSYLDSHLHTPMYFFLS | -0.31
VHRFARHVSPLINVLMANVLLLVPPLTNPIVYCVKT | 1.15
FVVVLSFLLGGYLLFVLYLAATNQTTNEWYRGDWAW | 0.342
GSAGHTTLGITLMIGGVTCILSLICALALAYLDQRA | 3.1
ALDRMKNPVTKHWRELTGVLILVNSLGGFACNCILH | 1.11
PRWVPKEALTGLVCLVCFLSATCFTLQSGNYWLEIF | 0.014
MFATFAQIQQKSILVWLFSRLYLYSFISLFIYMILS | -0.524
ASGVGFILGPVVGGYPTELEDGFYLTAFICFLVFIL | 2.24

Binder | enrichment score
MTPPERLFLPRVCGTTLHLLLLGLLLVLLPGAQGLP | 3.6
SAMNPVIYTLASKEMRRAFFRLVCNCLVRGRGARAS | 0.274
PATTPMPSSSFLPEANLPPPLNWQYNYPSTASQTNR | 4.59
LFPPAFRRLFEFFVLLKALFVLFVLAYIHIVFSRSP | 1.77
MAREDSVKCLRCLLSALNLLFWLMSISVLAVSAWMR | 2.5
GEKFGIQFPFDLDVKIKALMLGATFLIEYMYFELWP | 0.611
VWPLNLLRPRGGPGYVDVCGLFLLQMATILGMVPAW | 1.02
LGGLVICSLLTLIVIFYYLGLLCGVCGYDRHATPTT | 3.21
TITPFRKTMSTASAYTAGLTGILGLGIAAPNLAFSQ | 2.01
PFYPGYTNYGSFGHLHGHPGPGPGPTTGPGSHFNGL | -0.516
MHGDNLPCASLPFLLAVCFMGSLITRLLSLGTVHIY | 3.4
EAEAGWIEGAAILLSVICVVLVTAFNDWSKEKQFRG | 4.52
CVLGFIACSVFLRMSLEPKVVLLTVALVAYLVLFNL | 0.442
MKVISLLILVGFIGEFQSFSSASSPVNCQWDFYAPW | -0.317
LSTRPGYLWVVWIYRNLIGSVHFFFILTLIVLIITY | -1.49
KQQTHVRKHQFDHGELVYHALQLLAYTALGILIMRL | 2.13
IDPVVLVLMVGVVMFTLGFAGCVGALRENICLLNFF | 0.322
TALLIFTGAFLLGYVAFRGSCQACGDSVLVVSEDVD | 4.25
GICIVFGFIILLLLVLRRRRDSLSLSTQRTQGPESA | 1.93
ALSCLLVLLFVDEPKLNTSRLHRVLRNLCYHAQTRH | 0.778
MATGLQVPLPWLATGLLLLLSVQPWAESGKVLVVPS | 3.51
CITALLGCFLLILLSYAFIVAAILKIPSAEGRNKAF | 3.79
